Residue numbers refer to the chain shown, from its start. Results are given in words; binding and its absence hold for the method and conditions named. Some binding calls cover weakened binding; strength is not graded here.
B1: 人源化CQ137单抗(137-1) (antibody, V domains shown)
VH: QVQLVQSGAEVKKPGASVKVSCKASGYTFTGYYIHWVRQAPGQGLEWMGRINPYNGATTYNQNFKDRVTMTVDKSTSTAYMELRSLRSDDTAVYYCARFHYGAPDYWGQGTLVTVSS
VL: DIQMTQSPSSLSASVGDRVTITCKASQDINTYLTWFQQKPGKAPKTLIYRANILVDGVPSRFSGSGSGQDYTLTISSLQPEDFATYYCLQYDEFPLTFGGGTKVEIKR
B2: 人源化CQ137单抗(137-2) (antibody, V domains shown)
VH: B1 VH with T28S
VL: B1 VL with T46S, Q69T, Y71F
B3: 人源化CQ137单抗(137-3) (antibody, V domains shown)
VH: B1 VH with A16S, T28S, M70I, R84S, D89E
VL: B1 VL with F36Y, Q69T, Y71F

Each binder was assayed against 猴CD73全长 on CHOK1-cynoCD73细胞 (猴 (cyno)) (assay: flow cytometry on CHOK1-cynoCD73 cells).

binding	Binder
binds	B1
binds	B2
binds	B3

Source: patent CN112552406A
